# Measurements taken from the supplement of paper PMC5407854, “Inhibitor of ppGalNAc-T3-mediated O-glycosylation blocks cancer cell invasiveness and lowers FGF23 levels” (eLife, 2017).
# The list shows a part of the results. Most entries show no effect beyond the scatter of the controls.
# Columns and labels:
# [1] = tested on: ppGalNAc-T3 sensor; test: T3 sensor activation Q score (MG/GFP ratio z-score vs DMSO controls) (SD units); higher = more sensor activation (inhibition of ppGalNAc-T3 glycosylation); details: HEK293 sensor cells; 10 µM; 6 h
# Description: (§1)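 Cells were treated with compound at 10 uM for 6 h, then MG/GFP ratio was read by flow cytometry (10,000 cells per well, duplicate wells). Q = (R - R_neg)/SD_neg relative to DMSO vehicle controls; the signal rises when the glycosyltransferase is inhibited.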
# [2] = tested on: ppGalNAc-T2 sensor; test: T2 sensor activation Q score (MG/GFP ratio z-score vs DMSO controls) (SD units); higher = more sensor activation (inhibition of ppGalNAc-T2 glycosylation); details: HEK293 sensor cells; 10 µM; 6 h
# Description: as §1
SMILES,T3 sensor activation Q score [1],T2 sensor activation Q score [2]
CCOc1cc(CN2CCC(O)CC2)ccc1OC,-0.01,1.73
O=C(NCCc1ccccc1)c1ccc(Cl)c(Cl)c1,0.465,0.8
CC(=O)Nc1c(Cl)c(Cl)c(NC(C)=O)c2n[nH]nc12,-1.17,-1.48
NC(=O)NC(c1ccccc1)c1ccc(Br)cc1 (stereo unspecified),0.905,-0.4
Nc1nc(N)nc(-c2ccc(Oc3ccccc3)cc2)n1,0.62,0.845
O=C(Nc1ccc(Cl)cc1Cl)c1cnccn1,-0.285,0.78
Cc1ccc(NC(=O)CC(=O)NN)cc1,1.21,1.58
O=[N+]([O-])c1cc2c(cc1CN1CCN(c3ccccc3)CC1)OCO2,0.435,0.495
CNCC(O)COc1ccc(C)cc1C (stereo unspecified),0.435,0.785
Cc1nc2sc(C(=O)c3ccccc3)c(N)c2c(C)c1C,-0.795,-0.08
Cc1ccc(S(=O)(=O)NC(C)(C)C)cc1[N+](=O)[O-],-1,-1.2
O=C(Nc1ccccc1)Nc1ccccc1Br,0.5,1.66
COc1ccc(CNC2CCCC(C)C2)cc1 (stereo unspecified),0.765,-0.105

# Structural class: those above with four or more nitrogen atoms.
SMILES,T3 sensor activation Q score [1],T2 sensor activation Q score [2]
CC(=O)Nc1c(Cl)c(Cl)c(NC(C)=O)c2n[nH]nc12,-1.17,-1.48
Nc1nc(N)nc(-c2ccc(Oc3ccccc3)cc2)n1,0.62,0.845
